According to PubChem BioAssay AID624297 (National Center for Advancing Translational Sciences (NCATS), 2012):
Among all 340,000 compounds or so, about 6,200 (1.8%) were called active. This list was built around the results that the source calls inconclusive (neither active nor inactive); the mix of calls is not that of the screen. The call rests on the fitted dose curve; in most records, active means well fitted activation curve with a large enough effect; inconclusive means small, poorly fitted or top-dose-only effect; inactive means no such curve, though single readings can be large or run the other way. A potency beside an inconclusive call is a rough fit, not a confirmed value.
Potency means the concentration at half of the fitted maximal effect.

Test: A quantitative high throughput screen for small molecules that induce DNA re-replication in SW480 colon adenocarcinoma cells. Further: nearly all actives have a fitted effect of over 55% in size. On re-replication activation: % of control where 0% means no effect.
Settings: Hoechst DNA content imaging, 48 h; re-replication activation: at 46.1 µM (top of the series) unless noted
Method in brief: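 Compounds, transferred as 23 nL by pin tool, were incubated with cells for 48 hr; DNA content per nucleus was then quantified by Hoechst staining and fluorescence plate imaging.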
With COc1cccc(OC)c1OCCCCN1CCCCC1 the re-replication activation was inconclusive: 53.9% [activator].
In the case of CCOC(=O)c1ccc(N=Cc2nc(-c3ccccc3)oc2OC(C)=O)cc1, the Potency is reported as inconclusive: 14.6 µM [activator, partial curve].
For COc1cc(OC)cc(C(=O)N2CCN(c3ccccc3F)CC2)c1, the Potency was inconclusive: 20.6 µM [activator, single point].
For COc1ccc(C(=O)Nc2cccc(C)c2)cc1S(=O)(=O)N1CCOCC1, the Potency was inconclusive: 29.1 µM [activator, single point].
In the case of Cc1noc(C)c1COc1ccc(C(=O)NCc2cccs2)cc1, the Potency is reported as “inactive”.
For CCCOc1cc(C)c(S(=O)(=O)NC2CC(C)(C)NC(C)(C)C2)cc1C, the Potency was inconclusive: 23.1 µM [activator, single point].
For Cc1c(C(=O)N(C)Cc2cccc(F)c2)oc2c(Cl)cccc12, the Potency was inconclusive: 29.1 µM [activator, single point].
In the case of CCc1ccc(NC2Nc3cc(C)nn3S2)cc1 (centres undefined), the Potency is reported as inconclusive: 23.1 µM [activator, partial curve, poor fit].
In the case of CC(C)(C)CC(=O)Nc1cc(S(=O)(=O)N2CCCCCC2)ccc1Cl, the Potency is reported as inconclusive: 25.9 µM [activator, single point].
With Cc1ccc(NC(=O)Cn2cnc3sc(C(=O)NCc4ccco4)c(C)c3c2=O)cc1Cl the Potency was “inactive”.
With CCC(C)c1ccc(NC(=S)NCc2ccccn2)cc1 (centres undefined) the Potency was inconclusive: 7.31 µM [activator, partial curve, poor fit].
In the case of O=S(Cc1ccc(Cl)cc1)c1ncc(CO)n1Cc1ccccc1 (centres undefined), the Potency is reported as inconclusive: 3.26 µM [activator, full curve, poor fit].
With CCCCOc1ccc(C(=O)NCC(=O)NC2CCN(Cc3ccccc3)CC2)cc1 the Potency was “inactive”.
For C[C@H](CO)N1C[C@H](C)[C@@H](CN(C)S(=O)(=O)c2ccc(F)cc2)Oc2ccc(NC(=O)CCN3CCOCC3)cc2C1=O, the Potency was inconclusive: 0.206 µM [activator, full curve, poor fit].
In the case of C=CCn1c(Cc2c[nH]c3ccccc23)n[nH]c1=S, the Potency is reported as “inactive”.
For CCOC(=O)C1CCCN(S(=O)(=O)c2ccc(Br)c(OC)c2)C1 (centres undefined), the Potency was “inactive”.
For Cn1nccc1-c1cc(Cl)cc(Cl)c1O, the Potency was “inactive”.
With Cc1ccc(S(=O)(=O)Nc2c(NC3CCCCC3)c3ccccc3oc2=O)cc1C the re-replication activation was inconclusive: -36% [activator].
In the case of Cc1ccn2c(Nc3ccccc3C)c(-c3cccnc3)nc2c1, the Potency is reported as “inactive”.
For O=C(Nc1cccc(NC(=O)c2ccc(-c3ccc(Br)cc3)o2)c1)c1ccccc1, the Potency was inconclusive: 20.6 µM [activator, partial curve, poor fit].
In the case of Oc1cc(NCc2cccnc2)ccc1-c1nc2ccccc2o1, the Potency is reported as inconclusive: 23.1 µM [activator, partial curve, poor fit].
For CCN(CC)c1ccc(C=Nc2cc(C)ccc2C)c(O)c1, the Potency was inconclusive: 0.13 µM [activator, full curve, poor fit].
In the case of BrC(=C\c1ccccc1)/C=N/Nc1ccc2nncn2n1, the Potency is reported as inconclusive: 29.1 µM [activator, single point].
With O=C(CSc1ccc2nnc(-c3cccc(F)c3)n2n1)NCC1CCCO1 (centres undefined) the Potency was “inactive”.
With COc1ccc(Nc2nc3ccccc3nc2-n2nc(C)cc2C)cc1 the Potency was inconclusive: 29.1 µM [activator, single point].
In the case of COc1cc(Nc2nc3ccccc3nc2NS(=O)(=O)c2ccc([N+](=O)[O-])cc2)cc(OC)c1OC, the Potency is reported as inconclusive: 7.31 µM [activator, partial curve, poor fit].
For CN(C)CCCNC(=S)NCCNc1nc2cc3c(cc2cc1C#N)OCO3, the Potency was active: 14.6 µM.
In the case of Cc1ccc(Cl)cc1N1CCN(S(=O)(=O)c2ccc(-c3ccc(=O)[nH]n3)o2)CC1, the Potency is reported as inconclusive: 18.4 µM [activator, single point].
In the case of Nc1ccc2oc(-c3cccc(Br)c3)nc2c1, the Potency is reported as inconclusive: 32.6 µM [activator, partial curve, poor fit].
With CC1CCN(S(=O)C23CC4CC(CC(C4)C2)C3)CC1 (centres undefined) the Potency was inconclusive: 7.31 µM [activator, partial curve].
For O=S(=O)(Nc1ccc(-c2nc3cccnc3s2)cc1)c1ccc(Cl)s1, the Potency was “inactive”.
For O=S(=O)(CCNCc1ccco1)NC1CCCCC1, the Potency was inconclusive: 20.6 µM [activator, single point].
With Cc1ccc(-c2[nH]c3ccccc3c2SCCNC(=O)c2cc3ccccc3oc2=O)cc1 the Potency was inconclusive: 29.1 µM [activator, partial curve, poor fit].
For COc1cc(OC)cc(-c2c(-c3ccc(F)cc3)c3cc(-c4ccc5[nH]ccc5c4)ccc3n2C)c1, the Potency was inconclusive: 29.1 µM [activator, single point].
For O=S(c1ccc2ccccc2c1)c1cnns1 (centres undefined), the Potency was inconclusive: 16.4 µM [activator, single point].
With Cc1ccc(N=C2C(=S)N(c3ccc(C)cc3)C(=N)N2/N=C/c2ccc(Cl)cc2)cc1 the Potency was inconclusive: 23.1 µM [activator, single point].
In the case of Cc1ccc2[nH]c3c(c2c1)CC/C(=C/c1ccccc1)C3=O, the Potency is reported as inconclusive: 18.4 µM [activator, single point].
With COc1ccc(O)c(CN2CCC(n3nccc3NC(=O)C3CCCC3)CC2)c1 the Potency was inconclusive: 23.1 µM [activator, partial curve, poor fit].
With Cc1ccc(O)c(C(=O)c2cc(C#N)c(=O)n(CC3CCCO3)c2)c1 (centres undefined) the Potency was “inactive”.
For COc1cccc(-n2nnnc2SCC(=O)Nc2nc3c(s2)CCCC3)c1, the Potency was “inactive”.
For NS(=O)(=O)c1ccc(CCNC(=O)c2ccc(=O)[nH]c2)cc1, the Potency was “inactive”.
With Cc1nc2ccc(NC(=O)CCS(=O)(=O)c3ccc(Cl)cc3)cc2s1 the Potency was “inactive”.
With O=C1c2cc(Cl)ccc2OC2(CCNCC2)C12CC(c1ccc(Cl)cc1)=NO2 (centres undefined) the re-replication activation was inactive: -37.5% [at 9.22 µM].
For COC(CNC(=O)[C@H](CSCc1ccccc1)N1Cc2ccccc2C1=O)OC, the Potency was inconclusive: 0.116 µM [activator, full curve, poor fit].
